Data from patent US20110078821A1.
Positions count from the first letter of the chain named. Results are given in words; binding and its absence hold for the method and conditions named. Binding seen in cells or lysates may run through a third protein. Some entries that bind do so weakly or less than the wild type.

T1: SH2 (maize endosperm AGPase large subunit, encoded by shrunken-2) (maize) (UniProt P55241)
T1 sequence (looked up): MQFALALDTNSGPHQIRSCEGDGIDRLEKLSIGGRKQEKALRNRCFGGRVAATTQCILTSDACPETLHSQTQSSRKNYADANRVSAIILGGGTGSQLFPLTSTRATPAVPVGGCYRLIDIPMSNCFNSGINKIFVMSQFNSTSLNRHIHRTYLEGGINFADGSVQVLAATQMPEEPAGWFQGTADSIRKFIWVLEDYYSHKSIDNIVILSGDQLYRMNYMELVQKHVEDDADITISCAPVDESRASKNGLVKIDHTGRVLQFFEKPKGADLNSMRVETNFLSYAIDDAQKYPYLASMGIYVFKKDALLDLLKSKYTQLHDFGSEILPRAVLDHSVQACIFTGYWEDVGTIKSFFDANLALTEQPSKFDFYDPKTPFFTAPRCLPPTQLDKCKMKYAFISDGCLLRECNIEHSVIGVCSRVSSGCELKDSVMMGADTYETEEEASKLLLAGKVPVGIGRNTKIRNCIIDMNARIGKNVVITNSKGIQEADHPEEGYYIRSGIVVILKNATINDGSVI

B1: BT2 (wild type maize endosperm AGPase small subunit, encoded by brittle-2) (enzyme)
chain: MDMALASKASPPPWNATAAEQPIPKRDKAAANDSTYLNPQAHDSVLGIILGGGAGTRLYPLTKKRAKPAVPLGANYRLIDIPVSNCLNSNISKIYVLTQFNSASLNRHLSRAYGSNIGGYKNEGFVEVLAAQQSPDNPNWFQGTADAVRQYLWLFEEHNVMEFLILAGDHLYRMDYEKFIQAHRETNADITVAALPMDEKRATAFGLMKIDEEGRIIEFAEKPKGEQLKAMMVDTTILGLDDVRAKEMPYIASMGIYVFSKDVMLQLLREQFPEANDFGSEVIPGATSIGKRVQAYLYDGYWEDIGTIAAFYNANLGITKKPIPDFSFYDRFAPIYTQPRHLPPSKVLDADVTDSVIGEGCVIKNCKINHSVVGLRSCISEGAIIEDSLLMGADYYETEADKKLLAEKGGIPIGIGKNSCIRRAIIDKNARIGDNVKILNADNVQEAAMETDGYFIKGGIVTVIKDALLPSGTVI
B2: BT2-TI (BT2 comprising the TI mutation, threonine 462 to isoleucine) (enzyme)
chain: B1 chain with T462I
B3: MP (mosaic small subunit: N-terminal part of BT2 and C-terminal part of the potato tuber AGPase small subunit) (enzyme)
chain: MDMALASKASPPPWNATAAEQPIPKRDKAAANDSTYLNPQAHDSVLGIILGGGAGTRLYPLTKKRAKPAVPLGANYRLIDIPVSNCLNSNISKIYVLTQFNSASLNRHLSRAYGSNIGGYKNEGFVEVLAAQQSPDNPNWFQGTADAVRQYLWLFEEHNVMEFLILAGDHLYRMDYEKFIQAHRETNADITVAALPMDEKRATAFGLMKIDEEGRIIEFAEKPQGEQLQAMKVDTTILGLDDKRAKEMPFIASMGIYVISKDVMLNLLRDKFPGANDFGSEVIPGATSLGMRVQAYLYDGYWEDIGTIEAFYNANLGITKKPVPDFSFYDRSAPIYTQPRYLPPSKMLDADVTDSVIGEGCVIKNCKIHHSVVGLRSCISEGAIIEDSLLMGADYYETDADRKLLAAKGSVPIGIGKNCHIKRAIIDKNARIGDNVKIINKDNVQEAARETDGYFIKSGIVTVIKDALIPSGIII
B4: MP-TI (MP having the TI mutation) (enzyme)
chain: B3 chain with T462I

Each binder was assayed against T1, SH2 (maize endosperm AGPase large subunit, encoded by shrunken-2) (maize) (assay: co-purification of small and large subunit from E. coli, SDS-PAGE).

binding, binds:
B1
B2
B3
B4
